Test results from PubChem BioAssay AID2014 (Sanford-Burnham Center for Chemical Genomics, 2009).
Out of some 290,000 compounds screened, about 3,000 (1%) were called active. Only results without a clear call are listed here; the source files them as inconclusive. No rule for the calls is given here.

By UniProt entry, the sequences of proteins in these tests, tags left out.
UniProt P11940, whole entry: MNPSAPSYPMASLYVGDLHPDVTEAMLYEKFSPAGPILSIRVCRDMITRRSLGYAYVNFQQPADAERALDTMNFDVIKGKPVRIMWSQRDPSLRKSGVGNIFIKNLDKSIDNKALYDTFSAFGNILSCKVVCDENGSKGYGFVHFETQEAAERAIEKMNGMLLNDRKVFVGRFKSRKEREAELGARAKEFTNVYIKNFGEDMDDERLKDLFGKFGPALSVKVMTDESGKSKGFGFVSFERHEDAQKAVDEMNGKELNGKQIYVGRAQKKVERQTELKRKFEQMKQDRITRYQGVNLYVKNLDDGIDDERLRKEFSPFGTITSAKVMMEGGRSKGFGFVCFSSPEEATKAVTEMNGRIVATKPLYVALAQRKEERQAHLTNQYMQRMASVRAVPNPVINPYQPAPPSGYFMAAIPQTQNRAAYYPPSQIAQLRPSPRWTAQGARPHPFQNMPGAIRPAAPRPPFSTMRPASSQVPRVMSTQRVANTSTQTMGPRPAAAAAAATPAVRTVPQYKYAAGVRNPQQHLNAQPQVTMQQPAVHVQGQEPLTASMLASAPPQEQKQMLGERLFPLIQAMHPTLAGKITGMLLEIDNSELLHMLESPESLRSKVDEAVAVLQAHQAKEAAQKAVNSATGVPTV

The molecules below were run against Polyadenylate-binding protein 1 (Homo sapiens) (UniProt P11940) (assay: PABP poly(A) RNA binding inhibitors, primary screen, biochemical, fluorescence polarization, uHTS (AID 2014)). Settings: at 35 µM, active compounds read high.
In the case of `CCN(CC)CCCOC(=O)C(O)(c1ccccc1)c1ccccc1`, the inhibition is reported as inconclusive: 126%.
